Laboratory results published in US6506880B2, “Synthetic peptides that enhance atherogenic lipoprotein uptake and lower plasma cholesterol” (The UAB Research Foundation, priority 1998, dated 2003).

How the values were obtained:
LDL = experiment: Binding of the peptides to LDL, agarose gel electrophoresis; design: species or system human
Method: Agarose gel electrophoresis was carried out according to the procedure of Asztalos (22). LDL and the LDL-peptide mixture were electrophoresed on a 0.7% agarose gel. Tris-tricine buffer (25 mM, pH 8.6) was used for both gel and electrode buffers. Since the peptides are positively charged, the wells were made in the center of the gel to allow for movement in both directions. 2 μl samples (containing about 5 μg of LDL) were diluted with 2 μl of Tris-tricine buffer containing 10% glycerol and bromophenol blue. Samples were eletrophoresed at a constant voltage of 250 volts for about 2 h or until the dye reached the top of the gel. After the run, the gel was stained with Coomassie blue. In order to determine the stoichiometry of binding, ^125I-labeled peptides were used and the stained bands were excised and counted to determine the ratio of peptide to LDL.
Peptides were incubated at room temperature with LDL at various ratios for 1 h and then analyzed by agarose gel electrophoresis (FIG. 2). […] At a peptide:LDL ratio of 2.5:10 (w/w), no free peptide was detected (FIG. 2, lane 3). However, at higher peptide concentrations (5:10 and 10:10 w/w), free peptide was detected (stained material moving toward the cathode, FIG. 2, lane 6). […] Using ^125I labeled Ac-hE18A-NH2, the stoichiometry was determined to be 30 molecules of peptide to one of LDL (assuming one molecule of ApoB per LDL particle). […]

VLDL = experiment: Displacement of apolipoproteins from VLDL (SDS-PAGE and immunoprecipitation); design: species or system human; conditions: for Displacement of apo E from VLDL: VLDL:peptide 1:0.15 to 1:0.6 w/w
Method: The gel is stained with Coomassie Brilliant blue. Lanes: 1: VLDL alone; 2: VLDL-Ac-hE18A-NH2 (1:0.15 w/w); 3: Molecular weight standards; 4: VLDL-Ac-hE18A-NH2 (1:0.3 w/w); 5: VLDL-Ac-hE18A-NH2 (1:0.6 w/w). The positions of the apolipoproteins and the peptide are clearly marked. The numbers indicate the molecular weights of the standards. Each of the lanes contains the same amount of VLDL.
The VLDL and VLDL-Ac-hE 18A-NH2 were treated with antibodies to apo B, apoCs, and apo E The apolipoproteins were thus precipitated and the resulting turbidity was measured at 405 nm. Turbidity was proportional to the amount of the apolipoprotein present on VLDL. […] Apo B, Apo Cs and Apo E The first bar: VLDL alone; the second bar: VLDL-Ac-hE 18A-NH2 (1:0.15 w/w); the third bar: VLDL-Ac-hE18A-NH2 (1:0.3 w/w); the fourth bar: VLDL-Ac-hE18A-NH2 (1:0.6 w/w).
VLDL was incubated with increasing concentrations of the peptide at the weight ratios indicated in the legend of FIG. 7 and the peptide-VLDL mixtures were subjected to density gradient ultracentrifugation to separate VLDL from free peptide. The apolipoprotein compositions of the reisolated VLDL-peptide complexes were examined by SDS-PAGE (FIG. 7). At equal VLDL particle concentration (determined by cholesterol concentration) the content of apo E relative to that of apo B was lower in peptide treated VLDL (lanes 2,4 and 5) than in VLDL alone (lane 1). It is evident that the decrease in apo E in VLDL is concomitant with the increase in peptide concentration. Negligible amounts of apo E were detectable in VLDL at the peptide:VLDL ratio of 0.6:1.0 (lane 5). […] The apo Cs have the same Rf as the peptide. The effect of the dual-domain peptide on the apo Cs was established by immunoprecipitation as described below.
The effect of this peptide on other VLDL proteins was also examined by immunoprecipitation of apo B, apo E and apo Cs. Antibodies specific to apo B, apo E and the apo Cs were used to precipitate the respective proteins from VLDL and the VLDL-Ac-hE18A-NH2 complex. The resulting turbidity was a quantitative measure of the amount of protein present in VLDL after treatment with the peptide. Levels of apo B and apo C were not changed by the binding of Ac-hE18A-NH2 while the levels of apo E were reduced (FIG. 8).

[1] = immunoprecipitation, turbidity at 405 nm

Row | Substance | Effect on mobility of LDL / association with LDL on agarose gel (LDL; 0.7% agarose gel, 1 h incubation at room temperature) | Displacement of apo E from VLDL (VLDL) | Stoichiometry of peptide binding to LDL (LDL; 125I labeled peptide, assuming one ApoB per LDL particle) | Levels of apo B and apo C on VLDL (VLDL; [1]) | Levels of apo E on VLDL (VLDL; [1])
1 | Ac-18A-NH2: control peptide, end protected class A amphipathic helical peptide 18A (DWLKAFYDKVAEKLKGAF) [reference compound] | did not change the mobility of LDL | also displaces apo E although not all the protein is displaced; also recorded: a significant amount of apo E was displaced; also recorded: cause a displacement of apo E from VLDL |  |  | 
2 | Ac-hE18A-NH2: end protected analog of hE18A (acetyl and amino groups) (LRKLRKRLLRDWLKAFYDKVAEKLKEAF) |  | able to displace apo E from VLDL; also recorded: a significant amount of apo E was displaced; also recorded: decrease in the amount of apo E with increasing concentration of peptide; also recorded: cause a displacement of apo E from VLDL; also recorded: apo E is displaced from VLDL | 30 molecules of peptide to one of LDL | not changed | reduced

“Also recorded” adds a separate entry of the source.
